Taken from: PubChem BioAssay AID1053208 (Peter MacCallum Cancer Centre, 2014)

Assay: 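Synthetic lethal interactions between gene loss and doxorubicin in osteosarcoma cells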 (primary screen)
System: mouse osteosarcoma cells, early-passage culture from an engineered mouse model of fibroblastic bone tumour
Reagents: siRNA pool against mouse genes, 40 nM
Time to read-out: about 120 h (48 h before drug, then 72 h with drug)
Conditions: doxorubicin 100 nM for 72 h, roughly 30-40% inhibitory dose
Measurement: 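Viability read as ATP luminescence after 72 h of 100 nM doxorubicin or none, duplicate wells averaged, scaled to non-targeting siRNA, then expressed as robust z-scores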
Scale: viability z-score with doxorubicin and doxorubicin viability vs non-targeting: higher = more viable cells under doxorubicin; viability z-score without drug: higher = more viable cells with knock-down alone; z-score of drug to no-drug ratio: higher = less drug sensitisation by knock-down
Rule for the call: 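a pool counts as active when its viability z-score with doxorubicin is -2 or below and its z-score without drug lies between -2 and 2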
The whole screen tested about 17,000 reagents; this is a random part of them. 788 of all reagents (4.7%) count as active. 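Calls rest on z-score classes alone; an extra cut-off of viability at most 70% of control was not applied to them.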 The numbers tell different reagents against one gene apart.

target gene	pool no.	combined z-score class	viability z-score with doxorubicin	viability z-score without drug	z-score of drug to no-drug ratio	doxorubicin viability vs non-targeting	call
Zfp462	1	no change with or without drug	-0.45	1.18	-1.12	0.9	inactive
Slc30a3	1	no change with or without drug	0	1.01	-0.56	0.94	inactive
Snx4	1	no change with or without drug	-0.9	-1.18	0	0.86	inactive
Phf11a	1	low cell count with doxorubicin only	-2.81	-1.52	-2.02	0.69	active
E130016E03RIK	1	high cell count with doxorubicin only	2.02	1.18	1.35	1.12	inactive
Sybu	1	low cell count without drug only	-1.8	-2.02	-0.45	0.78	inactive
Sybu	2	no change with or without drug	-0.45	0.34	-0.56	0.9	inactive
Ddx41	1	no change with or without drug	0.22	-1.18	1.24	0.96	inactive
Dzip1	1	no change with or without drug	0.9	1.85	-0.22	1.02	inactive

Reagents listed above with an active call:
target gene	pool no.	combined z-score class	viability z-score with doxorubicin	viability z-score without drug	z-score of drug to no-drug ratio	doxorubicin viability vs non-targeting	call
Phf11a	1	low cell count with doxorubicin only	-2.81	-1.52	-2.02	0.69	active

More results follow:
target gene	pool no.	combined z-score class	viability z-score with doxorubicin	viability z-score without drug	z-score of drug to no-drug ratio	doxorubicin viability vs non-targeting	call
H6pd	1	no change with or without drug	0.45	-0.51	1.01	0.98	inactive
Pptc7	1	no change with or without drug	-0.67	-1.52	0.45	0.88	inactive
Gpt2	1	no change with or without drug	1.69	0.17	1.8	1.09	inactive
Gnpnat1	1	no change with or without drug	0.11	-0.51	0.56	0.95	inactive
Selp	1	no change with or without drug	-1.57	-0.84	-1.01	0.8	inactive
Gna13	1	no change with or without drug	-0.45	1.18	-1.12	0.9	inactive
Anapc13	1	no change with or without drug	-0.79	-0.84	-0.11	0.87	inactive
Piga	1	no change with or without drug	-0.45	0.17	-0.45	0.9	inactive
Dnajb13	1	no change with or without drug	0.34	1.35	-0.45	0.97	inactive
Mvb12a	1	no change with or without drug	0.45	-0.51	1.01	0.98	inactive
Gpx2	1	low cell count without drug only	-0.34	-2.53	1.8	0.91	inactive
